Data as given in patent publication US7947302B2, “Antithrombotic coating for drug eluting medical devices” (Cordis Corporation, priority 2005, dated 2011).
For at least one compound, name, drawing or mass did not settle the structure.

Tests used:
[1] = In vitro release kinetics from layered rapamycin, Panzem and polymeric coating (FIG. 70, 71); assay type: physicochemical; conditions: inner layer forty-five percent Panzem, outer layer forty percent rapamycin, EVA/BMA (50/50), no topcoat
[2] = Liquid formulations with Vitamin E TPGS, ethanol and water; HPLC assay, visual observation, storage; assay type: physicochemical; conditions: water, ethanol less than two percent
[3] = tested on: monocyte chemotactic protein (MCP-1); assay: MCP-1 levels in the vascular wall after delivery from a stent (FIG. 75); assay type: in vivo; conditions: delivered from a stent
[4] = tested on: human coronary artery smooth muscle cells; assay: Anti-proliferative activity in synchronized cultured cells, two percent fetal bovine serum (FIG. 64-68); assay type: cell-based; conditions: in vitro, agent alone
From the text: The multiple curves represent various concentrations of topotecan ranging from zero to three hundred nanomolar concentrations.
The multiple curves represent various concentrations of etoposide ranging from zero to eight hundred nanomolar concentrations.
Referring to FIG. 66, there is illustrated, in graphical format, the anti-proliferative activity of Panzem® in synchronized cultured human coronary artery smooth muscle cells stimulated with two percent fetal bovine serum.
The multiple curves represent various concentrations of Panzem® ranging from zero to 100 micromolar concentrations.

[5] = Liquid formulations with PEG 200, ethanol and water; concentrations by liquid chromatography; assay type: physicochemical
From the text: In accordance with exemplary embodiments of the present invention, a series of liquid formulations were developed for the local or regional delivery of water insoluble compounds such as sirolimus and its analogs, including CCl-779, ABT-578 and everolimus, through weeping balloons and catheter injection needles. […] These liquid formulations increase the apparent solubility of the pharmacologically active but water insoluble compounds by two to four orders of magnitude as compared to the solubility limits of the compounds in water. These liquid formulations rely on the use of a very small amount of organic solvents such as Ethanol (typically less than two percent) and a larger amount of safe amphiphilic (of or relating to a molecule having a polar, water soluble group attached to a non-polar, water insoluble […]) excipients such as polyethylene glycol (PEG 200, PEG 400) and vitamin E TPGS to enhance the solubility of the compounds. These liquid formulations of highly water insoluble compounds are stable and readily flowable at room temperature. Certain excipients, such as Vitamin E TPGS and BHT may be utilized to enhance the storage stability of sirolimus compounds through their anti-oxidation properties. […]

Porcine = Porcine studies with rapamycin-coated stents; assay type: in vivo; conditions: porcine and rabbit models; nonerodible polymeric stent coating, 35-430 ug/5-18 mm coronary stent; maximal at about twenty-eight to thirty days

CO[C@H]1C[C@@H]2CC[C@@H](C)[C@@](O)(O2)C(=O)C(=O)N2CCCC[C@H]2C(=O)O[C@H]([C@H](C)C[C@@H]2CC[C@@H](O)[C@H](OC)C2)CC(=O)[C@H](C)/C=C(\C)[C@@H](O)[C@@H](OC)C(=O)[C@H](C)C[C@H](C)/C=C/C=C/C=C/1C [rapamycin]
in vitro elution from layered coating relative to co-loaded drug [1]: elutes more slowly than Panzem® | sirolimus concentration in the final solution (HPLC assay) [2]: 15 mg/mL | reduction of monocyte chemotactic protein (MCP-1) levels in the vascular wall [3]: highly effective in reducing monocyte chemotactic protein (MCP-1) levels | anti-proliferative activity (FIG. 66, 67) [4]: effective | dilution with water at which sirolimus starts to precipitate out of solution ([5]; liquid formulation comprising 4 mg/ml of sirolimus, PEG 200): five to ten | Sirolimus conc. ([5]; second block of Table 8: EtOH 2.0 %, H2O 25 %, PEG 200 75 %): 4 mg/mL | peak reduction in neointimal hyperplasia (Porcine): fifty to fifty-five
